In article doi:10.1101/2025.02.19.638559, “The architecture, assembly, and evolution of a complex flagellar motor” (bioRxiv, 2025) one finds binding data, which are given here for one molecule.

No constants are given. Whether binding was seen depends on the method and setting. For some assays here: Binding calls can cover weak binding; strength is not graded here.

Assay [1] has as its target FlgY_(15–172), FlgY without the predicted signal peptide (C. jejuni 81-176). Briefly: MST; FlgY at 200 nM in PBS with 0.05% Tween-20; PflA16-788-Strep titrated from 0 to 60 μM; Monolith NT.115, 20% LED power, 40% MST power; both purified.
The target in assay [2] is FlgY_(90–172) (C. jejuni 81-176). Described as above.

B1: PflA_(16–788) of the purified PflA_(16–788) and PflB_(113–820) complex (domain or fragment)
chain: AFELVLNTGRENNQAFAVLHASNDLEFTCQKFITEAKVHFECDIVGMVDNKLKDQSFSAFDLKFIQEAQKIKMIILPKIQARMFDTSQNIYIDKELSSSSSHKSKAFTFIFTPELAPIKDYDGLDFNINFPHESLPYVGALDLNSDPVVIPQSADINTYLRIKKEYDKANYNQVVIDAQNAINRYRGSIFTSEFILYKLRAQNKLYTQDPSMRDQQILEKMIDDAKNWTRTFTSDKNFSEVLHIMLRTYIALAQRADVEYTMSILDNEQPNNYFTQLSKLDYADYIYNLNEKEKAVNIYENTYFNTKNLDLAARAAMSLAKNLLSNEQVNKAIEYINTILKANPEYFGKDIPRSLELAKLFNQKGQFDISASIYEDAFAKMSKLDPSYEETLKDLALVLSHANRSSDAKKYLDLYMDDYLDGKYLDEIKKASDEVFFALGDNNASFLHQRYTDLMKQYANKDENIANKALDEDVALYYKEGNFSAILAYKDLIESKKIPNATQFLEKAAINDLKNAIKADNCINAANIFMRFSAYDIGQKIENKKQMLACLIRTSNVEQALDYIDKNYNEDSIFYGLQKASILFDNKQYPQVIKISKDIANSRILKSDDENFKAYYLQFLSLLRLNDYNQAIKILQILESFPMNFSMVEAYDALLSYANDHNMQTTILTYAPKAIDYQNFKGINLFSPNLEFIYLDALTKINKNEESLAVLTDLLKLKLSDEDRARALYIQALTYERMQNIQAEKESLKQCLEIKSASNWQNLCKSKNQILNQ
notes: PflA of C. jejuni 81-176, residues 16-788; only 16-163 (β-sandwich domain and flexible loop) are resolved in the cryo-EM structure; PflA16-788 was cloned both in pET22b (C-terminal 6×His) and in pET26b (C-terminal Strep-tag); also called PflA_(16–163) (the part resolved in the map)
With B1, the figures for the binding result in assay [1] and in assay [2] were “binds” and “no binding (tested: 60 μM)”, respectively.
